Assay results: the supplement of paper PMC4604168 (melanoma cell lines)
The other results are listed elsewhere or left out. Repeats are few or missing, and single values can be far off.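 Cells were imaged in 1,536-well plates, and nuclei stained with an antibody against cleaved PARP were counted against all DNA-stained nuclei to give the apoptosis fraction. Screening doses were chosen to leave most cells alive, and resting and induced cleaved-PARP levels differ strongly between cell lines.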

What follows are compounds tested on RPMI7951 (assay: cleaved PARP positive nuclei fraction relative to DMSO control; melanoma cells; higher = more apoptosis). Conditions: library dose: low library concentration; 72 h.

| Compound | cleaved PARP positive nuclei fraction |
| --- | --- |
| Cn1c(Nc2ccc(C(F)(F)F)cc2)nc2cc(Oc3ccnc(-c4ncc(C(F)(F)F)[nH]4)c3)ccc21 + COCC[n+]1c2c(n(Cc3cnccn3)c1C)C(=O)c1ccccc1C2=O [YM155] (first compound 0.08 µM, partner dose 0.0004 µM) | 97.5% |
| Clc1ccc(Nc2nnc(Cc3ccncc3)c3ccccc23)cc1 [vatalanib] + C#Cc1cccc(Nc2ncnc3cc(OCCOC)c(OCCOC)cc23)c1 [erlotinib] (first compound 2 µM, partner dose 0.8 µM) | 184% |
| C=CCNC1=C2C[C@@H](C)C[C@H](OC)[C@H](O)[C@@H](C)/C=C(\C)[C@H](OC(N)=O)[C@@H](OC)/C=C\C=C(/C)C(=O)NC(=CC1=O)C2=O [Tanespimycin] + CC(C)CCN1c2nc(Nc3cc(F)c(O)c(F)c3)ncc2N(C)C(=O)C1C [BID1870] (first compound 0.002 µM, partner dose 0.2 µM) | 63.4% |

What follows are compounds tested on RVH-421 in the same assay as above. Conditions: library dose: low library concentration; 72 h.

| Compound | cleaved PARP positive nuclei fraction |
| --- | --- |
| CC(=O)c1c(C)c2cnc(Nc3ccc(N4CCNCC4)cn3)nc2n(C2CCCC2)c1=O [palbociclib] + Nc1cccc2c1CN(C1CCC(=O)NC1=O)C2=O [lenalidomide] (first compound 0.04 µM, partner dose 1 µM) | 124% |
| CC(=O)c1c(C)c2cnc(Nc3ccc(N4CCNCC4)cn3)nc2n(C2CCCC2)c1=O [palbociclib] + COc1ccc(Cl)c(Nc2nc3ccccc3nc2NS(=O)(=O)c2cccc(NC(=O)C(C)(C)N)c2)c1 [XL147] (first compound 0.04 µM, partner dose 0.8 µM) | 126% |
| CC(=O)c1c(C)c2cnc(Nc3ccc(N4CCNCC4)cn3)nc2n(C2CCCC2)c1=O [palbociclib] + Cc1nc(Nc2ncc(C(=O)Nc3c(C)cccc3Cl)s2)cc(N2CCN(CCO)CC2)n1 [dasatanib] (first compound 0.04 µM, partner dose 0.004 µM) | 488% |
| C=CCNC1=C2C[C@@H](C)C[C@H](OC)[C@H](O)[C@@H](C)/C=C(\C)[C@H](OC(N)=O)[C@@H](OC)/C=C\C=C(/C)C(=O)NC(=CC1=O)C2=O [Tanespimycin] + COc1ccc(Cl)c(Nc2nc3ccccc3nc2NS(=O)(=O)c2cccc(NC(=O)C(C)(C)N)c2)c1 [XL147] (first compound 0.002 µM, partner dose 0.8 µM) | 105% |
| OCc1c[nH]c2ccccc12 [Indole-3-carbinol] + C#Cc1cccc(Nc2ncnc3cc(OCCOC)c(OCCOC)cc23)c1 [erlotinib] (first compound 0.8 µM, partner dose 0.8 µM) | 81.8% |
| CC(=O)c1c(C)c2cnc(Nc3ccc(N4CCNCC4)cn3)nc2n(C2CCCC2)c1=O [palbociclib] + C[C@]1(c2nc3c(C(N)=O)cccc3[nH]2)CCCN1 [Veliparib] (first compound 0.04 µM, partner dose 1.4 µM) | 90.1% |
| C=CCNC1=C2C[C@@H](C)C[C@H](OC)[C@H](O)[C@@H](C)/C=C(\C)[C@H](OC(N)=O)[C@@H](OC)/C=C\C=C(/C)C(=O)NC(=CC1=O)C2=O [Tanespimycin] + C#Cc1cccc(Nc2ncnc3cc(OCCOC)c(OCCOC)cc23)c1 [erlotinib] (first compound 0.002 µM, partner dose 0.8 µM) | 92.5% |
| C=CCNC1=C2C[C@@H](C)C[C@H](OC)[C@H](O)[C@@H](C)/C=C(\C)[C@H](OC(N)=O)[C@@H](OC)/C=C\C=C(/C)C(=O)NC(=CC1=O)C2=O [Tanespimycin] + Clc1ccc(Nc2nnc(Cc3ccncc3)c3ccccc23)cc1 [vatalanib] (first compound 0.002 µM, partner dose 2 µM) | 112% |
| COCC[n+]1c2c(n(Cc3cnccn3)c1C)C(=O)c1ccccc1C2=O + Nc1cccc2c1CN(C1CCC(=O)NC1=O)C2=O [lenalidomide] (first compound 0.0004 µM, partner dose 1 µM) | 59% |
| C#Cc1cccc(Nc2ncnc3cc(OCCOC)c(OCCOC)cc23)c1 [erlotinib] + C[C@]1(c2nc3c(C(N)=O)cccc3[nH]2)CCCN1 [Veliparib] (first compound 0.8 µM, partner dose 1.4 µM) | 56.5% |
| CC(=O)c1c(C)c2cnc(Nc3ccc(N4CCNCC4)cn3)nc2n(C2CCCC2)c1=O [palbociclib] + C#Cc1cccc(Nc2ncnc3cc(OCCOC)c(OCCOC)cc23)c1 [erlotinib] (first compound 0.04 µM, partner dose 0.8 µM) | 89.3% |
| Nc1cccc2c1CN(C1CCC(=O)NC1=O)C2=O (stereo unspecified) [lenalidomide] + COc1cc(Nc2ncc(F)c(Nc3ccc4c(n3)NC(=O)C(C)(C)O4)n2)cc(OC)c1OC [Tamatinib] (first compound 1 µM, partner dose 0.4 µM) | 24.3% |
| C[C@]1(c2nc3c(C(N)=O)cccc3[nH]2)CCCN1 [Veliparib] + CC(C)(C)c1cnc(CSc2cnc(NC(=O)C3CCNCC3)s2)o1 [SNS-032] (first compound 1.4 µM, partner dose 0.01 µM) | 104% |
| Cc1nc(Nc2ncc(C(=O)Nc3c(C)cccc3Cl)s2)cc(N2CCN(CCO)CC2)n1 [dasatanib] + Nc1cccc2c1CN(C1CCC(=O)NC1=O)C2=O [lenalidomide] (first compound 0.004 µM, partner dose 1 µM) | 136% |
| CC(=O)c1c(C)c2cnc(Nc3ccc(N4CCNCC4)cn3)nc2n(C2CCCC2)c1=O [palbociclib] + OCc1c[nH]c2ccccc12 [Indole-3-carbinol] (first compound 0.04 µM, partner dose 0.8 µM) | 82.8% |
| Clc1ccc(Nc2nnc(Cc3ccncc3)c3ccccc23)cc1 [vatalanib] + COCC[n+]1c2c(n(Cc3cnccn3)c1C)C(=O)c1ccccc1C2=O [YM155] (first compound 2 µM, partner dose 0.0004 µM) | 181% |
| CC1(C)NC(=O)N(c2ccc([N+](=O)[O-])c(C(F)(F)F)c2)C1=O [nilutamide] + O=C(Nc1cccc(Cl)c1)Nc1ncc(CCNc2ncnc3ccsc23)s1 [SNS314] (first compound 1 µM, partner dose 0.0008 µM) | 88.3% |
| Nc1cccc2c1CN(C1CCC(=O)NC1=O)C2=O (stereo unspecified) [lenalidomide] + C[C@]1(c2nc3c(C(N)=O)cccc3[nH]2)CCCN1 [Veliparib] (first compound 1 µM, partner dose 1.4 µM) | 61.4% |
| OCc1c[nH]c2ccccc12 [Indole-3-carbinol] + COc1ccc(Cl)c(Nc2nc3ccccc3nc2NS(=O)(=O)c2cccc(NC(=O)C(C)(C)N)c2)c1 [XL147] (first compound 0.8 µM, partner dose 0.8 µM) | 87.5% |
| CC(=O)c1c(C)c2cnc(Nc3ccc(N4CCNCC4)cn3)nc2n(C2CCCC2)c1=O [palbociclib] + Clc1ccc(Nc2nnc(Cc3ccncc3)c3ccccc23)cc1 [vatalanib] (first compound 0.04 µM, partner dose 2 µM) | 79.2% |
| Cn1nnc2c(C(N)=O)ncn2c1=O [temozolomide] + C[C@@H]1CCN(C(=O)CC#N)C[C@@H]1N(C)c1ncnc2[nH]ccc12 [CP690550] (first compound 2 µM, partner dose 1 µM) | 143% |
| Cc1nc(Nc2ncc(C(=O)Nc3c(C)cccc3Cl)s2)cc(N2CCN(CCO)CC2)n1 [dasatanib] + Cn1nnc2c(C(N)=O)ncn2c1=O [temozolomide] (first compound 0.004 µM, partner dose 2 µM) | 78.5% |
| OCc1c[nH]c2ccccc12 [Indole-3-carbinol] + COCC[n+]1c2c(n(Cc3cnccn3)c1C)C(=O)c1ccccc1C2=O [YM155] (first compound 0.8 µM, partner dose 0.0004 µM) | 43.5% |
| Clc1ccc(Nc2nnc(Cc3ccncc3)c3ccccc23)cc1 [vatalanib] + C=CCn1c(=O)c2cnc(Nc3ccc(N4CCN(C)CC4)cc3)nc2n1-c1cccc(C(C)(C)O)n1 [MK1775] (first compound 2 µM, partner dose 0.02 µM) | 112% |
| C#Cc1cccc(Nc2ncnc3cc(OCCOC)c(OCCOC)cc23)c1 [erlotinib] + COCC[n+]1c2c(n(Cc3cnccn3)c1C)C(=O)c1ccccc1C2=O [YM155] (first compound 0.8 µM, partner dose 0.0004 µM) | 105% |
| Cc1nc(Nc2ncc(C(=O)Nc3c(C)cccc3Cl)s2)cc(N2CCN(CCO)CC2)n1 [dasatanib] + Cn1c(Nc2ccc(C(F)(F)F)cc2)nc2cc(Oc3ccnc(-c4ncc(C(F)(F)F)[nH]4)c3)ccc21 [CHIR265] (first compound 0.004 µM, partner dose 0.08 µM) | 237% |
| CC(C)(C)c1cnc(CSc2cnc(NC(=O)C3CCNCC3)s2)o1 + Cc1cc(N2CCOCC2)cc2[nH]c(-c3c(NC[C@@H](O)c4cccc(Cl)c4)cc[nH]c3=O)nc12 [BMS536924] (first compound 0.01 µM, partner dose 0.2 µM) | 29.3% |
| OCc1c[nH]c2ccccc12 [Indole-3-carbinol] + Nc1cccc2c1CN(C1CCC(=O)NC1=O)C2=O [lenalidomide] (first compound 0.8 µM, partner dose 1 µM) | 81.6% |

No new results follow: an excerpt of the list.

| Compound | cleaved PARP positive nuclei fraction |
| --- | --- |
| CC(=O)c1c(C)c2cnc(Nc3ccc(N4CCNCC4)cn3)nc2n(C2CCCC2)c1=O [palbociclib] + OCc1c[nH]c2ccccc12 [Indole-3-carbinol] (first compound 0.04 µM, partner dose 0.8 µM) | 82.8% |
| Clc1ccc(Nc2nnc(Cc3ccncc3)c3ccccc23)cc1 [vatalanib] + COCC[n+]1c2c(n(Cc3cnccn3)c1C)C(=O)c1ccccc1C2=O [YM155] (first compound 2 µM, partner dose 0.0004 µM) | 181% |
